# Source: PubChem BioAssay AID743255 (National Center for Advancing Translational Sciences (NCATS), 2014)
# By UniProt entry, the sequences of proteins in these tests, tags left out. Where a name states a change or a piece, a line headed by the entry shows the natural chain unless it says otherwise.
# UniProt O94782: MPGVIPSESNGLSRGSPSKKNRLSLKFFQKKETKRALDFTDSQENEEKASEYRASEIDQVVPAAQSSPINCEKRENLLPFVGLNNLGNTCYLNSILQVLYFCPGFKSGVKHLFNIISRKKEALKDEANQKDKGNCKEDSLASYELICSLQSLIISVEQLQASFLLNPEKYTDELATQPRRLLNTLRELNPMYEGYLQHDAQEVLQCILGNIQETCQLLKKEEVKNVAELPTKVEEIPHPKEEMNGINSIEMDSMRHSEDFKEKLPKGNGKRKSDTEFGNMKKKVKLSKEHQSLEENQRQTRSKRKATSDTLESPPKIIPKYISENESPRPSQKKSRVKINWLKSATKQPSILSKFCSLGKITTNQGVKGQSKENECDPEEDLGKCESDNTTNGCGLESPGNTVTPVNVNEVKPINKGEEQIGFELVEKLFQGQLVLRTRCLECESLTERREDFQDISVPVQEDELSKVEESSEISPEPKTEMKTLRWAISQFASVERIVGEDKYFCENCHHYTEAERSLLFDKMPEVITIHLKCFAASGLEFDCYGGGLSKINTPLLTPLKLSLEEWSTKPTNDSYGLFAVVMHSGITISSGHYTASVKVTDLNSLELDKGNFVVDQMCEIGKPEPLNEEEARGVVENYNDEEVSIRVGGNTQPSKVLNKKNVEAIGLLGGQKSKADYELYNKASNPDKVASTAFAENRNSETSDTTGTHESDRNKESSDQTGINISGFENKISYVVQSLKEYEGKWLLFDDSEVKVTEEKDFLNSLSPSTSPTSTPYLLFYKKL
# In all, about 390,000 compounds went through this assay and about 910 (0.23%) were called active. Inconclusive means that the source gave no clear call. Such entries were picked first, then a sample of the others. Calls come from the whole dose curve; as a rule, active = well fitted inhibition curve with a large enough effect; inconclusive = small, poorly fitted or top-dose-only effect; inactive = no such curve, though single readings can be large or run the other way. A potency beside an inconclusive call is a rough fit, not a confirmed value.
# Target: Ubiquitin carboxyl-terminal hydrolase 1 (Homo sapiens) (UniProt O94782)
# Test: Inhibitors of USP1/UAF1: Primary Screen; note: nearly all actives have a fitted effect of over 60% in size
# Conditions: recombinant USP1/UAF1, Ub-Rhodamine cleavage fluorescence; series mostly up to 57.1 µM
# Outline: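 Step one: compound is pinned into 1nM USP1/UAF1 in HEPES pH 7.8 buffer with TCEP. Step two: 15 min room-temperature incubation. Step three: Ub-Rho (150nM final) starts cleavage, tracked by fluorescence over six one-minute reads.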
# Potency is the fitted concentration of half-maximal effect.
row,SMILES,Potency
1,NC(=O)CSc1oc(-c2ccco2)nc1S(=O)(=O)c1ccc(Br)cc1,"inconclusive: 4.47 µM [inhibitor, single point]"
2,CCOC(=O)c1cccc(NC(=O)[C@H](CSCc2ccccc2)N2Cc3ccccc3C2=O)c1,"inconclusive: 44.7 µM [inhibitor, partial curve, poor fit]"
3,C[C@H]1CN=C(Nc2ccccc2)N1CCCC1CCCCC1,"inconclusive: 39.8 µM [inhibitor, partial curve, poor fit]"
4,Oc1ccc(Br)cc1/C=N/n1c(C2CCCCC2)n[nH]c1=S,inactive
5,CCOC(=O)Cc1csc(SCn2nnc3ccccc3c2=O)n1,inactive
6,O=C(N/N=C/c1cc([N+](=O)[O-])c(N2CCOCC2)cc1N1CCOCC1)c1cccnc1,"inconclusive: 0.224 µM [inhibitor, full curve, poor fit]"
7,COc1cc(NC(=O)CN(c2cc(C)cc(C)c2)S(=O)(=O)c2c(C)[nH]c(=O)[nH]c2=O)cc(OC)c1,"inconclusive: 0.631 µM [inhibitor, full curve, poor fit]"
8,Cc1ccc(S(=O)(=O)/N=C2\C=C(Nc3cccc(C(=O)O)c3)C(=O)c3ccccc32)cc1,active: 14.1 µM
9,Cc1ccc(-c2nn(-c3ccccc3)cc2CN(Cc2ccccc2)C(=O)c2ccco2)o1,"inconclusive: 50.1 µM [inhibitor, partial curve, poor fit]"
10,Nc1cc(N2CCCCC2)c([N+](=O)[O-])cc1Cl,inactive
11,O=C1NC(=S)NC1=Cc1ccco1,"inconclusive: 12.6 µM [inhibitor, partial curve]"
12,O=C(NC1CC1)C1=C[C@H](c2csc3ccccc23)C[C@H](OCc2ccc(CO)cc2)O1,"inconclusive: 44.7 µM [inhibitor, partial curve]"
13,COc1ccc([C@H]2CC(=O)C=C(c3cccc4c3Oc3ccccc3S4)C2)cc1OC,"inconclusive: 2.24 µM [inhibitor, full curve, poor fit]"
14,CCN(CC(=O)Nc1ccccc1C(F)(F)F)C(=O)CCOc1ccccc1C,inactive
15,O=C(Nc1ccc(Br)cc1)C1C2C=CC3(O2)C1C(=O)N(CCN1CCCCC1)C3C(=O)NC1CCCCC1 (stereo not given),"inconclusive: 0.562 µM [inhibitor, full curve, poor fit]"
16,CN1C(=O)C2(c3ccccc31)N(c1ccc(Br)cc1)C(=O)CS2(=O)=O (stereo not given),inactive
17,Cc1cc(C)n(CC(=O)NC2CCCc3c2cnn3-c2ccc(C)c(C)c2)n1 (stereo not given),inactive
18,CCOC(=O)c1ccc(N2CCN(c3cc(C)ccc3C)CC2)c(N)c1,inactive
19,COc1cccc(CNC(=O)CCc2c(C)c3ccc(O)c(C)c3oc2=O)c1,"inconclusive: 3.55 µM [inhibitor, full curve, poor fit]"
20,CCOC(=O)C1CCN(C(=O)CN(c2ccc(OC)cc2)S(=O)(=O)c2c(C)noc2C)CC1,"inconclusive: 3.55 µM [inhibitor, full curve]"
21,COC(=O)Cn1ccc(N(C)C)c(C#N)c1=O,"inconclusive: 0.282 µM [inhibitor, full curve, poor fit]"
22,Cc1ccc(NC(=O)Cn2c(-c3nonc3N)nc3ccccc32)c(Br)c1,"inconclusive: 44.7 µM [inhibitor, partial curve, poor fit]"

# Structural class: those above containing an NH in an aromatic ring.
row,SMILES,Potency
4,Oc1ccc(Br)cc1/C=N/n1c(C2CCCCC2)n[nH]c1=S,inactive
7,COc1cc(NC(=O)CN(c2cc(C)cc(C)c2)S(=O)(=O)c2c(C)[nH]c(=O)[nH]c2=O)cc(OC)c1,"inconclusive: 0.631 µM [inhibitor, full curve, poor fit]"

# Reformatted bar-delimited: entries from further up
row | SMILES | Potency
8 | Cc1ccc(S(=O)(=O)/N=C2\C=C(Nc3cccc(C(=O)O)c3)C(=O)c3ccccc32)cc1 | active: 14.1 µM
11 | O=C1NC(=S)NC1=Cc1ccco1 | inconclusive: 12.6 µM [inhibitor, partial curve]

# Additional results

row,SMILES,Potency
1,CC(C)C(=O)N1CCc2cc(-c3csc(N)n3)ccc21,inactive
2,CC(C(=O)N1CCOCC1)N1C(=O)C2C3C=CC(C4CC34)C2C1=O (stereo not given),"inconclusive: 10 µM [inhibitor, single point]"
3,CC/C(=N/Nc1cccc(C)c1)c1cnnc(SC)n1,"inconclusive: 28.2 µM [inhibitor, partial curve]"
4,COc1ccc2c(c1)CCc1c(C(=O)Nc3ccc(C#N)cc3)noc1-2,"inconclusive: 7.94 µM [inhibitor, partial curve]"
5,CCN1C(=O)[C@@H]2Cc3c([nH]c4ccccc34)C(c3cc(OC)c(OC)c(OC)c3)N2C1=S (stereo not given in full),"inconclusive: 39.8 µM [inhibitor, partial curve]"
6,O=C(CNC(=O)OCc1ccccc1)Oc1cc2oc(=O)cc(-c3ccccc3)c2cc1Cl,"inconclusive: 0.398 µM [inhibitor, full curve, poor fit]"
7,C#CC(C)(O)C1CC(CC(=O)O)C1(C)C (stereo not given),"inconclusive: 14.1 µM [inhibitor, partial curve]"
8,COCCNC(=O)Cn1cc(S(=O)(=O)N2CCN(c3ccccc3F)CC2)c2ccccc2c1=O,inactive
9,CC(C)(C)c1csc(NNC(=O)c2ccc(Br)cc2)n1,"inconclusive: 22.4 µM [inhibitor, partial curve]"
10,CC(=O)c1cc2c(cc1NC(=O)Cn1nc(-c3ccc(C)cc3)ccc1=O)OCO2,inactive
11,CN(Cc1ccccc1)C(=O)COC(=O)c1ccccc1NS(=O)(=O)c1cccc(N)c1,inactive
12,CC(C)(C)C(=O)COC(=O)CCc1nc2ccccc2[nH]c1=O,"inconclusive: 5.62 µM [inhibitor, partial curve]"
13,O=C(Cn1ncc2c3ccccc3n(Cc3ccccc3)c2c1=O)NC1CCCCCC1,"inconclusive: 2.24 µM [inhibitor, partial curve]"
14,O=C(Nc1ccc(N=Nc2ccccc2)cc1)c1ccccc1Cl,inactive
15,COc1cccc(/C=N/Nc2ncnc3scc(-c4ccccc4)c23)c1O,"inconclusive: 44.7 µM [inhibitor, partial curve]"
16,C=C(C)Cn1c(C)cc(C)c(S(=O)(=O)c2ccc(C)cc2)c1=O,"inconclusive: 89.1 µM [inhibitor, partial curve, poor fit]"
17,CCn1c(=N)n(CC(O)COc2ccccc2)c2ccccc21 (stereo not given),"inconclusive: 0.251 µM [inhibitor, full curve, poor fit]"
18,COC(=O)c1sc(-c2ccc(C(C)(C)C)cc2)cc1NC(=O)c1ccccc1C(=O)O,active: 28.2 µM
19,CCCc1cnc2c(c1SCc1cccc(F)c1)c(=O)n(C)c(=O)n2C,"inconclusive: 0.251 µM [inhibitor, full curve, poor fit]"
20,Cc1ccc(C(=O)c2cn(Cc3ccccc3C)c3nc(C)ccc3c2=O)cc1,"inconclusive: 39.8 µM [inhibitor, single point]"
21,Cc1ccc(NC(=O)Cn2c(=O)n(Cc3ccc4c(c3)OCO4)c(=O)c3ccccc32)cc1,"inconclusive: 50.1 µM [inhibitor, partial curve, poor fit]"
22,CN(C)S(=O)(=O)c1ccc(NC(=O)COC(=O)C2COc3ccccc3O2)cc1 (stereo not given),"inconclusive: 1.26 µM [inhibitor, full curve, poor fit]"

row,SMILES,Potency
1,C=C[C@@H]1c2ccccc2N(S(=O)(=O)c2ccc(C)cc2)[C@H](c2ccccc2C(F)(F)F)C1(C#N)C#N,"inconclusive: 2.51 µM [inhibitor, full curve, poor fit]"
2,O=C(Nc1cccc(Cl)c1)Nc1nnc(CC2=CCCCC2)s1,inactive
3,Cc1c(C(=O)N2CCOCC2)sc(NC(=O)c2ccc3c(c2)OCO3)c1C#N,"inconclusive: 14.1 µM [inhibitor, partial curve, poor fit]"
4,Cc1cc(CNC(=O)CC2C(=O)NCCN2CC(c2ccccc2)c2ccccc2)on1 (stereo not given),"inconclusive: 35.5 µM [inhibitor, single point]"
5,Cc1c(C(=O)OCC(=O)NCC2CCCO2)cccc1[N+](=O)[O-] (stereo not given),inactive
6,Nc1nc(CCl)nc(Nc2ccc3ccccc3c2)n1,inactive
7,CCc1ccc(Nc2nnc(-n3nc(C)cc3C)c3ccccc23)cc1,"inconclusive: 70.8 µM [inhibitor, partial curve, poor fit]"
8,COc1ccc(CNC(=O)c2cnc3sc(N4CCCC4)nn3c2=O)c(OC)c1,"inconclusive: 0.251 µM [inhibitor, full curve, poor fit]"
9,CCc1ccc(/C=C2\Oc3c(ccc(O)c3CN3CCN(CCO)CC3)C2=O)cc1,inactive
10,O=C1C(c2ccc(C(F)(F)F)cc2)=C(Nc2ccc(Cl)cc2)c2ccccc21,"inconclusive: 31.6 µM [inhibitor, single point]"
11,CCN(C(=O)Cn1nc(Cc2cccnc2)c2ccccc2c1=O)c1cc(C)ccc1C,inactive
12,Cc1ccc(C(=O)Nc2cc3c(cc2Cl)OCCCO3)cc1,"inconclusive: 17.8 µM [inhibitor, partial curve]"
13,COc1cc(-c2nnc(SCC(=O)N3CCCc4ccccc43)o2)cc(OC)c1OC,"inconclusive: 0.126 µM [inhibitor, full curve, poor fit]"
14,CCn1c(=O)[nH]c2cc(C(=O)Nc3cc(C)cc(C)c3)ccc2c1=O,"inconclusive: 0.251 µM [inhibitor, full curve, poor fit]"
15,COc1cccc(CNc2ccc3c(c2)ncn3C)c1OC,"inconclusive: 0.282 µM [inhibitor, full curve, poor fit]"
16,CCCN(C)C[C@@H]1Oc2ncc(Br)cc2C(=O)N([C@@H](C)CO)C[C@H]1C,"inconclusive: 6.31 µM [inhibitor, partial curve]"
17,Clc1cccc(Cl)c1CSc1nnc([C@@H]2CCCN2)o1,"inconclusive: 50.1 µM [inhibitor, partial curve, poor fit]"
18,O=C1CN(C(=O)COC(=O)/C=C/c2ccco2)c2ccccc2N1,inactive
19,Cc1cc(C)cc(NC(=O)Cn2nnc(C(=O)NCc3ccco3)c2N)c1,"inconclusive: 4.47 µM [inhibitor, full curve, poor fit]"
20,CCCCCOc1ccc2oc(=O)c3c(c2c1)CCCN3C(=O)CN1CCCC(C(=O)OCC)C1 (stereo not given),inactive
21,Cc1ccc(C(=O)Nc2nnc(SCc3cc(=O)n4ccc(C)cc4n3)s2)cc1,"inconclusive: 44.7 µM [inhibitor, single point]"
